In the assay the test system is L1210 leukemia ip in BDF1 mice, survival T/C. Description: NCI In Vivo Anticancer Drug Screen. Data for tumor model L1210 Leukemia (intraperitoneal) in B6D2F1 (BDF1) mice. Particulars: T/C endpoint: mean survival time, higher T/C = longer survival.
[1] abbreviates: dose: 400.0 mg/kg/injection, schedule: Q04DX003 (ip), vehicle: Klucel (hydroxypropylcellulose) (HPC).
Where [2] appears, read: dose: 400.0 mg/kg/injection, schedule: Q01DX001 (ip), vehicle: saline.
[3] abbreviates: dose: 200.0 mg/kg/injection, schedule: Q01DX009 (ip), vehicle: saline.
Where [4] appears, read: dose: 400.0 mg/kg/injection, schedule: Q04DX003 (ip), vehicle: saline.
Setting [5] is: dose: 200.0 mg/kg/injection, schedule: Q01DX001 (ip), vehicle: other.
Where [6] appears, read: dose: 50.0 mg/kg/injection, schedule: Q01DX009 (ip), vehicle: saline with Tween-80.
Setting [7] is: dose: 100.0 mg/kg/injection, schedule: Q04DX003 (ip), vehicle: saline with Tween-80.
[8] abbreviates: dose: 200.0 mg/kg/injection, schedule: Q04DX003 (ip), vehicle: saline with Tween-80.
Where [9] appears, read: dose: 400.0 mg/kg/injection, schedule: Q04DX003 (ip), vehicle: saline with Tween-80.

The list is a part of this screen's results and no random one: it is rich in T/C values a quarter to a half above the control, in often repeated tests (any T/C) and in doses without a T/C. Further doses and runs are listed elsewhere. T/C: endpoint of the treated group in % of that of the vehicle group. Some doses have a count of surviving animals in place of a T/C: the source holds a T/C of zero for them, seemingly a mark for toxic or unscored doses. Some doses without a T/C left all or most animals alive at the check, yet need not have been tolerated: the source hardly ever lists a survival T/C far under the control, and the zero likely stands for such cases as well. Counts of survivors are from the toxicity check (mostly the fifth day) where no day follows; animals may have died later. Schedules are NCI's codes, read here as Q, the interval in days (D) or hours (H), X, the number of doses. Some schedules carry Z or #; the key to these is not given. Some structures stand for samples that the source files as different forms (salt, stereo form or complex); doses refer to the form tested. For survival time, the PubChem record calls one and a half times the control and up active, and a quarter to a half above the control has no call in these data; cut-offs in other NCI protocols can differ.

Consider `Nc1nc(SCc2ccccc2)c2[nH]cnc2n1`, for which the T/C was 136 % of control (dose: 5.0 mg/kg/injection, schedule: Q01DX Z (ip), vehicle: carboxymethylcellulose (CMC)); 126 % of control (dose: 8.0 mg/kg/injection, schedule: Q01DX Z (ip), vehicle: carboxymethylcellulose (CMC)); 141 % of control (dose: 15.0 mg/kg/injection, schedule: Q01DX Z (ip), vehicle: carboxymethylcellulose (CMC)); 127 % of control (dose: 16.0 mg/kg/injection, schedule: Q01DX010 (ip), vehicle: saline); 135 % of control (dose: 16.0 mg/kg/injection, schedule: Q01DX Z (ip), vehicle: carboxymethylcellulose (CMC)); 147 % of control (dose: 16.0 mg/kg/injection, schedule: Q01DX Z (oral), vehicle: carboxymethylcellulose (CMC)). For the same compound, the T/C reads like this: (dose: 20.0 mg/kg/injection, schedule: Q01DX Z (ip), vehicle: carboxymethylcellulose (CMC)) 135 % of control; (dose: 20.0 mg/kg/injection, schedule: Q03DX Z (ip), vehicle: carboxymethylcellulose (CMC)) 136 % of control; (dose: 20.0 mg/kg/injection, schedule: Q07DX Z (ip), vehicle: carboxymethylcellulose (CMC)) 142 % of control; (dose: 30.0 mg/kg/injection, schedule: Q01DX Z (ip), vehicle: carboxymethylcellulose (CMC)) 133 % of control; (dose: 30.0 mg/kg/injection, schedule: Q03DX Z (ip), vehicle: carboxymethylcellulose (CMC)) 142 % of control; (dose: 31.3 mg/kg/injection, schedule: Q01DX010 (ip), vehicle: saline) 128 % of control. The T/C (dose: 32.0 mg/kg/injection, schedule: Q01DX010 (ip), vehicle: saline) is 138 % of control; the T/C (dose: 32.0 mg/kg/injection, schedule: Q01DX Z (ip), vehicle: carboxymethylcellulose (CMC)) was 134 % of control; the T/C (dose: 32.0 mg/kg/injection, schedule: Q01DX Z (oral), vehicle: carboxymethylcellulose (CMC)) is 143 % of control; the T/C (dose: 60.0 mg/kg/injection, schedule: Q03DX Z (ip), vehicle: carboxymethylcellulose (CMC)) was 144 % of control; the T/C (dose: 64.0 mg/kg/injection, schedule: Q01DX010 (ip), vehicle: saline) was 138 % of control; the T/C (dose: 82.0 mg/kg/injection, schedule: Q03DX Z (ip), vehicle: carboxymethylcellulose (CMC)) was 145 % of control. The T/C is 140 % of control (dose: 195.0 mg/kg/injection, schedule: Q03DX Z (ip), vehicle: carboxymethylcellulose (CMC)); 137 % of control (dose: 195.0 mg/kg/injection, schedule: Q07DX Z (ip), vehicle: carboxymethylcellulose (CMC)); 141 % of control (dose: 292.0 mg/kg/injection, schedule: Q01DX001 (ip), vehicle: carboxymethylcellulose (CMC)); 146 % of control (dose: 292.5 mg/kg/injection, schedule: Q01DX001 (ip), vehicle: carboxymethylcellulose (CMC)). In addition, the survivor count runs as follows: (dose: 250.0 mg/kg/injection, schedule: Q01DX010 (ip), vehicle: saline) 5 of 6; (dose: 438.0 mg/kg/injection, schedule: Q01DX001 (ip), vehicle: carboxymethylcellulose (CMC)) 5 of 10.
On to `c1ccc(Nc2c3ccccc3nc3ccccc23)cc1`, for which the survivor count runs as follows: (dose: 200.0 mg/kg/injection, schedule: Q04DX003 (ip), vehicle: other) 6 of 6; (dose: 400.0 mg/kg/injection, schedule: Q04DX003 (ip), vehicle: other) 3 of 6.
Turning to `O=C(O)c1cc2ccccc2cc1O.Oc1cccc2cccnc12.[Cu]`, the survivor count (dose: 2.0 mg/kg/injection, schedule: Q01DX015 (ip), vehicle: carboxymethylcellulose (CMC)) is 6 of 6; the survivor count (dose: 4.0 mg/kg/injection, schedule: Q01DX015 (ip), vehicle: carboxymethylcellulose (CMC)) is 6 of 6; the survivor count (dose: 16.0 mg/kg/injection, schedule: Q01DX015 (ip), vehicle: carboxymethylcellulose (CMC)) is 2 of 6.
As to `CCCOc1ccc(Nc2c3ccccc3nc3ccccc23)cc1`, the survivor count under setting [1] was 1 of 6.
With `CCc1occ(C(=O)N2Cc3cc4ccccc4nc3C2)c1C1SCCS1`, under setting [2], the survivor count is recorded as 6 of 6.
Regarding `O=C1C=CC2(CCC23C=CC(=O)O3)O1` (centres undefined), the survivor count runs as follows: (dose: 65.0 mg/kg/injection, schedule: Q01DX Z (ip), vehicle: saline) 4 of 7; (dose: 100.0 mg/kg/injection, schedule: Q01DX Z (ip), vehicle: saline) 0 of 7; (dose: 150.0 mg/kg/injection, schedule: Q01DX Z (ip), vehicle: saline) 0 of 7.
Consider `NCCCn1cnc2c(N)ncnc21`, for which the survivor count runs as follows: under setting [3], 0 of 6; (dose: 400.0 mg/kg/injection, schedule: Q01DX009 (ip), vehicle: saline) 0 of 6; under setting [4], 1 of 6.
Take `N#CSCC(=O)c1ccc(Cl)cc1`: under “dose: 400.0 mg/kg/injection, schedule: Q01DX001 (ip), vehicle: carboxymethylcellulose (CMC)”, the survivor count is recorded as 1 of 4.
As to `COc1ccc(CC2=[N+](C)CCc3cc(OC)c(OC)cc32)cc1OC`, under setting [5], the survivor count is recorded as 3 of 6.
`O=C1CN=C(c2ccccn2)c2cc(Br)ccc2N1`: the T/C is, setting by setting: (dose: 400.0 mg/kg/injection, schedule: Q04DX002 (ip), vehicle: Klucel (hydroxypropylcellulose) (HPC)) 142 % of control; (dose: 600.0 mg/kg/injection, schedule: Q04DX002 (ip), vehicle: Klucel (hydroxypropylcellulose) (HPC)) 127 % of control.
In the case of `CCOC(=O)C(OCc1ccccc1)(C(=O)Cl)C(C)C` (centres undefined), the survivor count under setting [6] was 3 of 6; the survivor count (dose: 100.0 mg/kg/injection, schedule: Q01DX009 (ip), vehicle: saline with Tween-80) was 1 of 6; the survivor count under setting [7] is 1 of 6; the survivor count under setting [8] was 0 of 6; the survivor count under setting [9] is given as 0 of 6.
Regarding `CCN(CC)CCSC(=O)C(O)(c1ccccc1)C1CCCCC1` (centres undefined), the survivor count is recorded as 3 of 6 (dose: 150.0 mg/kg/injection, schedule: Q01DX001 (ip), vehicle: other) and 0 of 6 (dose: 300.0 mg/kg/injection, schedule: Q01DX001 (ip), vehicle: other).
`C#CC(O)(/C=C\Cl)CC` (centres undefined): the survivor count under setting [3] was 2 of 6 and the survivor count under setting [4] is listed as 1 of 4.
On to `CC(=O)Nc1ccc(C(C)(C)c2ccc([N+](=O)[O-])cc2)cc1[N+](=O)[O-]`, for which, under setting [5], the survivor count is 4 of 4.
In the case of `CCCCCCCCN(C)N=Nc1ccc(Cl)cc1C(=O)O`, the T/C is, setting by setting: (dose: 100.0 mg/kg/injection, schedule: Q01DX009 (ip), vehicle: Klucel (hydroxypropylcellulose) (HPC)) 129 % of control; (dose: 300.0 mg/kg/injection, schedule: Q01DX009 (ip), vehicle: Klucel (hydroxypropylcellulose) (HPC)) 131 % of control. Also, the survivor count by setting is: (dose: 100.0 mg/kg/injection, schedule: Q04DX003 (ip), vehicle: Klucel (hydroxypropylcellulose) (HPC)) 6 of 6; (dose: 200.0 mg/kg/injection, schedule: Q04DX003 (ip), vehicle: Klucel (hydroxypropylcellulose) (HPC)) 6 of 6; (dose: 400.0 mg/kg/injection, schedule: Q01DX009 (ip), vehicle: Klucel (hydroxypropylcellulose) (HPC)) 3 of 6; under setting [1], 6 of 6; (dose: 600.0 mg/kg/injection, schedule: Q04DX003 (ip), vehicle: Klucel (hydroxypropylcellulose) (HPC)) 1 of 6.
On to `C/C(Cc1c[nH]c2ccccc12)=N/NC(N)=S`, for which the survivor count (dose: 200.0 mg/kg/injection, schedule: Q01DX001 (ip), vehicle: saline) is reported as 1 of 4 and the survivor count under setting [2] was 2 of 4.
Regarding `CC(C)(C)CC(C)(C)CC(C)(C)NCCCN`, the survivor count is 4 of 6 under setting [6], 0 of 6 under setting [7], 0 of 6 under setting [8] and 0 of 6 under setting [9].
